# The list does not hold the whole screen: it is rich in T/C values a quarter to a half above the control, in often repeated tests (any T/C) and in doses without a T/C. Further doses and runs are listed elsewhere. T/C is the treated group as % of the vehicle group. Some entries give survivors of the animals treated and no T/C: the source files T/C as zero there, which appears to mark a toxic dose or a test without result, not a measured value. Some survivor counts are full or nearly so, which does not show that the dose was tolerated: survival well below the control is almost never listed, so the zero probably covers shortened survival too. Survivors were counted at the toxicity check, usually on the fifth day, unless a day is given; later deaths do not show. Schedule codes are those of the source, read here as Q, the interval in days (D) or hours (H), X, the number of doses. Some entries hold several experiments; their values stand side by side, smallest first. Where survival is the endpoint, this PubChem deposit counts one and a half times the control or more as active, and values a quarter to a half above the control carry no call in these data; other NCI protocols may use other cut-offs. Some T/C values carry the count of animals alive at the toxicity check (mostly the fifth day); where none is given, no animal had died by that day. Signs of the kind (2×) say how often a value occurs here. *1 amine or outer side, *2 acyl side, *3 side chain or, on linkers, in order; H or OH if unused. Where a SMILES comes first, the peptide text is derived from it. Bridges are numbered along the chain shown (N, C = ends). [ ]: non-standard residue; d: D form. The star is where a group is joined. X5 = CC(C)C(C)C(C(=O)[*:2])N(C)[*:1]; Picolinoyl(3-OH) = O=C(c1ncccc1O)*; NMePhg = CN[CH](C(=O)O)c1ccccc1; Hyp = O=C(O)[CH]1C[CH](O)CN1; Sar = CNCC(=O)O
# Tested on: B6C3F1 mice, B16 melanoma ip, median survival T/C
# Experiment: NCI In Vivo Anticancer Drug Screen. Data for tumor model B16 Melanoma (intraperitoneal) in B6C3F1 mice
# Details: T/C endpoint: median survival time, higher T/C = longer survival
# Summary of the method: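 Readout: survival or tumor size in treated mice relative to vehicle controls (T/C). Model uses transplantable tumors grown in mice.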
# [1] = dose: 25.0 mg/kg/injection, schedule: Q01DX009 (ip), vehicle: saline
# [2] = dose: 12.5 mg/kg/injection, schedule: Q01DX009 (ip), vehicle: saline with Tween-80
# [3] = dose: 100.0 mg/kg/injection, schedule: Q01DX009 (ip), vehicle: saline with Tween-80
# [4] = dose: 400.0 mg/kg/injection, schedule: Q01DX009 (ip), vehicle: Klucel (hydroxypropylcellulose) (HPC)
# [5] = dose: 25.0 mg/kg/injection, schedule: Q01DX009 (ip), vehicle: saline with Tween-80
# [6] = dose: 50.0 mg/kg/injection, schedule: Q01DX009 (ip), vehicle: saline with Tween-80
# [7] = dose: 200.0 mg/kg/injection, schedule: Q01DX009 (ip), vehicle: saline with Tween-80
# [8] = dose: 400.0 mg/kg/injection, schedule: Q01DX009 (ip), vehicle: saline with Tween-80
# [9] = dose: 200.0 mg/kg/injection, schedule: Q01DX009 (ip), vehicle: saline
compound,measurement,setting,value
C=C(C)CNC1=C(C)C(=O)C2=C(C1=O)[C@H](COC(N)=O)[C@]1(OC)[C@@H]3N[C@@H]3CN21,T/C,"dose: 1.0 mg/kg/injection, schedule: Q01DX001 (ip), vehicle: distilled water + Tween-80",131 % of control
same,T/C,"dose: 2.0 mg/kg/injection, schedule: Q01DX001 (ip), vehicle: distilled water + Tween-80",146 % of control
CCOc1ccc(-c2nc3ccc(-c4nc5ccc(N6CCN(C)CC6)cc5[nH]4)cc3[nH]2)cc1,survivor count,[1],10 of 10
COC1C(O)C(C)OC(OC2C(Oc3cccc4c(O)c5c(=O)oc6ccc(C)c7c(=O)oc(c34)c5c67)OC(C)C(O)C2O)C1O (stereo unspecified),T/C,"dose: 6.25 mg/kg/injection, schedule: Q01DX009 (ip), vehicle: saline with Tween-80",126 % of control
same,T/C,[2],132 % of control
same,T/C,[3],149 % of control
Nc1ncnc2c1ncn2C1OC(CO)C(O)C1O (stereo unspecified),survivor count,[1],10 of 10
same,survivor count,"dose: 50.0 mg/kg/injection, schedule: Q01DX009 (ip), vehicle: saline",8 of 10
same,survivor count,"dose: 100.0 mg/kg/injection, schedule: Q01DX009 (ip), vehicle: saline",8 of 10
CCCCCCCC1C(=O)OC2CC3C(C)=CC(=O)C(O)C3(C)C3C4(O)OCC23C1C(C)C4O (stereo unspecified),T/C,"dose: 20.0 mg/kg/injection, schedule: Q01DX009 (ip), vehicle: Klucel (hydroxypropylcellulose) (HPC)",128 % of control
same,survivor count,"dose: 40.0 mg/kg/injection, schedule: Q01DX009 (ip), vehicle: Klucel (hydroxypropylcellulose) (HPC)",0 of 10
O=C(O)CCCCCCCC(=O)O,survivor count,"dose: 200.0 mg/kg/injection, schedule: Q01DX009 (ip), vehicle: distilled water + Tween-80",10 of 10
same,survivor count,"dose: 400.0 mg/kg/injection, schedule: Q01DX009 (ip), vehicle: distilled water + Tween-80",1 of 10
CC(C)CC1NC(=O)C(NC(=O)c2ncccc2O)C(C)OC(=O)C(c2ccccc2)N(C)C(=O)C(C)NC(=O)C(C(C)C(C)C)N(C)C(=O)CN(C)C(=O)C2CC(O)CN2C1=O (stereo unspecified) ({Picolinoyl(3-OH)}-TL[Hyp][Sar][X5]A[NMePhg]; ester 1-C; configuration not given here),survivor count,[4],0 of 10
C=C1C(O)C2(O)OCC34C(CC5C(C)=CC(=O)C(O)C5(C)C23)OC(=O)C(OC(=O)C(C)(O)CC)C14 (stereo unspecified),T/C,"dose: 0.5 mg/kg/injection, schedule: Q01DX009 (ip), vehicle: saline + alcohol",126 % of control
same,T/C,"dose: 1.0 mg/kg/injection, schedule: Q01DX009 (ip), vehicle: saline + alcohol",128 % of control
same,T/C,"dose: 2.0 mg/kg/injection, schedule: Q01DX009 (ip), vehicle: saline + alcohol",128 [9 of 10 alive] and 149 % of control
same,survivor count,"dose: 4.0 mg/kg/injection, schedule: Q01DX009 (ip), vehicle: saline + alcohol",0 of 10
O=C(O)C1CSCN1 (stereo unspecified),survivor count,"dose: 3.12 mg/kg/injection, schedule: Q01DX009 (ip), vehicle: saline",10 of 10
O=[n+]1c2c(n([O-])c3ccccc31)-c1cccc3cccc-2c13,survivor count,[5],10 of 10
same,survivor count,[6],10 of 10
same,survivor count,[3],10 of 10
CNc1nc(NC)nc(NC)n1,survivor count,"dose: 200.0 mg/kg/injection, schedule: Q01DX009 (ip), vehicle: Klucel (hydroxypropylcellulose) (HPC)",9 of 10
same,survivor count,[4],0 of 10
COc1ccc(CC2C(=O)NC(C)C(=O)N(C)C3C(=O)N(C)C(Cc4ccc(O)c(c4)Oc4ccc(cc4)C3O)C(=O)NC(C)C(=O)NC(C)C(=O)N2C)cc1 (stereo unspecified),T/C,"dose: 0.25 mg/kg/injection, schedule: Q01DX009 (ip), vehicle: saline with Tween-80",141 % of control
same,T/C,"dose: 0.5 mg/kg/injection, schedule: Q01DX005 (ip), vehicle: saline with Tween-80",131 % of control
same,T/C,"dose: 1.0 mg/kg/injection, schedule: Q01DX005 (ip), vehicle: saline with Tween-80",129 % of control
same,T/C,"dose: 1.0 mg/kg/injection, schedule: Q01DX009 (ip), vehicle: saline with Tween-80",147 % of control
same,T/C,"dose: 2.0 mg/kg/injection, schedule: Q01DX005 (ip), vehicle: saline with Tween-80",129 % of control
same,survivor count,"dose: 4.0 mg/kg/injection, schedule: Q01DX005 (ip), vehicle: saline with Tween-80",3 of 10
same,survivor count,"dose: 4.0 mg/kg/injection, schedule: Q01DX005 (iv), vehicle: saline with Tween-80",2 of 10 and 6 of 10
same,T/C,"dose: 4.0 mg/kg/injection, schedule: Q01DX009 (ip), vehicle: saline with Tween-80",133 % of control
CCN(CC)c1ccc2[nH]c3c(C(N)=O)cc(=O)c(=O)c=3oc2c1,survivor count,[6],7 of 10
same,survivor count,[3],8 of 10
same,survivor count,[7],6 of 10
CN=C(NC)c1ccc(NC(=O)/C=C\c2ccc(/C=C/C(=O)Nc3ccc(C(=NC)NC)cc3)cc2)cc1,survivor count,"dose: 12.5 mg/kg/injection, schedule: Q01DX009 (ip), vehicle: Klucel (hydroxypropylcellulose) (HPC)",10 of 10
same,survivor count,"dose: 25.0 mg/kg/injection, schedule: Q01DX009 (ip), vehicle: Klucel (hydroxypropylcellulose) (HPC)",0 of 10
O=C1NCC(Br)C(=O)N1 (stereo unspecified),survivor count,[6],10 of 10
same,T/C,[3],131 % of control
same,survivor count,"dose: 200.0 mg/kg/injection, schedule: Q01DX009 (ip), vehicle: saline + Tween-80 + alcohol",8 of 10
same,T/C,[7],127 % of control
same,survivor count,[7],7 of 10
same,survivor count,"dose: 400.0 mg/kg/injection, schedule: Q01DX009 (ip), vehicle: saline + Tween-80 + alcohol",2 of 10
same,survivor count,[8],0 of 10 and 7 of 10
CC1=NN(c2cccc(S(=O)(=O)O)c2)C(=O)C1N=Nc1cc(Cl)cc(S(=O)(=O)O)c1O.CC1=NN(c2cccc(S(=O)(=O)O)c2)C(=O)C1N=Nc1cc(Cl)cc(S(=O)(=O)O)c1O.[Cr] (stereo unspecified),survivor count,[9],10 of 10
same,survivor count,"dose: 400.0 mg/kg/injection, schedule: Q01DX009 (ip), vehicle: saline",5 of 10
same,survivor count,"dose: 800.0 mg/kg/injection, schedule: Q01DX009 (ip), vehicle: saline",0 of 10
NC(=O)C1=CC2C3C=CC2(O)C(=O)OC3O1 (stereo unspecified),survivor count,"dose: 30.0 mg/kg/injection, schedule: Q01DX009 (ip), vehicle: Klucel (hydroxypropylcellulose) (HPC)",10 of 10
same,survivor count,"dose: 60.0 mg/kg/injection, schedule: Q01DX009 (ip), vehicle: Klucel (hydroxypropylcellulose) (HPC)",0 of 10
C[n+]1c(-c2cccc(OCCCCCCCOc3cccc(-c4c5cc(N)ccc5c5ccc(N)cc5[n+]4C)c3)c2)c2cc(N)ccc2c2ccc(N)cc21,T/C,"dose: 0.08 mg/kg/injection, schedule: Q01DX009 (ip), vehicle: water",134 % of control
same,T/C,"dose: 0.15 mg/kg/injection, schedule: Q01DX009 (ip), vehicle: water",134 % of control
same,survivor count,"dose: 0.3 mg/kg/injection, schedule: Q01DX009 (ip), vehicle: water",10 of 10
O=C1C=C(N2CC2)C(=O)C(N2CC2)=C1N1CC1,T/C,"dose: 12.5 micrograms/kg/injection, schedule: Q01DX009 (ip), vehicle: saline",130 % of control
same,T/C,"dose: 25.0 micrograms/kg/injection, schedule: Q01DX009 (ip), vehicle: saline",140 % of control
same,T/C,"dose: 50.0 micrograms/kg/injection, schedule: Q01DX009 (ip), vehicle: saline",130 % of control
same,survivor count,"dose: 100.0 micrograms/kg/injection, schedule: Q01DX009 (ip), vehicle: saline",9 of 10
same,survivor count,"dose: 200.0 micrograms/kg/injection, schedule: Q01DX009 (ip), vehicle: saline",6 of 10
CCN(CC)CCNc1ccc(C)c2sc3ccc(O)cc3c(=O)c12,T/C,[5],137 % of control
same,survivor count,[7],9 of 10
CC1(C)COCN1COC1CCCCC1,survivor count,[7],2 of 10
same,survivor count,[9],8 of 10
same,survivor count,[8],0 of 10
O=C(Nc1ccccc1)c1c(O)[nH]c(=S)[nH]c1=O,T/C,"dose: 12.0 mg/kg/injection, schedule: Q01DX009 (ip), vehicle: saline with Tween-80",128 % of control [9 of 10 alive]
same,T/C,[5],"125, 130, 137, 158 % of control"
same,T/C,[6],"141, 152, 157, 169 % of control [9 of 10 alive]"
same,T/C,[3],"167 [9 of 10 alive], 183 [8 of 10 alive] (2×), 185 [9 of 10 alive], 193 % of control"
same,survivor count,"dose: 150.0 mg/kg/injection, schedule: Q01DX009 (ip), vehicle: saline with Tween-80",4 of 10
same,survivor count,[7],"0 of 10, 3 of 10, 4 of 10"
CS(=O)(=O)CS(=O)(=O)OCCCl,T/C,[2],139 % of control
same,survivor count,[3],8 of 10
same,survivor count,[7],0 of 10 and 8 of 10

# From PubChem BioAssay AID200 (DTP/NCI, 2004)
